Values from PubChem BioAssay AID504804 (Drosophila RNAi Screening Center, 2011)

- Assay: 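dsRNAs that improve Kc cell survival under doxorubicin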 (primary screen)
- Cells: Drosophila Kc cells
- Reagent: long dsRNA against Drosophila genes, 0.5 µg dsRNA per well
- Time to read-out: 96 h (48 h knock-down, then 48 h drug)
- Conditions: doxorubicin 5 µg/ml for 48 h, added 48 h after dsRNA
- Detection: 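Luminescent ATP counts per replicate, not normalised, reflecting viable cells after 48 h dsRNA knock-down followed by 48 h of 5 µg/ml doxorubicin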
- Direction: raw ATP luminescence: higher = more viable cells, protection from doxorubicin
- Call rule: 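z-score of 2 or more over plate mean in both duplicates, retained only when retests and separate dsRNAs confirm the protection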
The deposit covers about 19,000 reagents; below is a random part of those that have a named target and a result. In the full data, 47 (0.25%) are marked active. 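Signals are raw, not normalised; exact z-scores behind calls not deposited; actives needed confirmation, so some wells reaching 2 SD are inactive.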 Entries without a mark were called inactive. A plus sign joins genes that one reagent is predicted to hit. No sequences are given here.

gene	dsRNA	SD above plate mean	raw ATP luminescence, replicate 1	raw ATP luminescence, replicate 2
RPA3	DRSC19658		3.82e5	3.15e5
CG1309	DRSC08302		36383	26927
PTPMT1	DRSC14235		57020	78750
Uba1	DRSC07567		67780	59903
Ctps	DRSC09342		96087	92187
Ctps	DRSC10728	2 to 3 SD above plate mean	49267	50743
Ctps	DRSC10729		43730	45067
Ifrd1	DRSC00415		43403	32697
Ifrd1	DRSC00566		32090	27937
CG33494	DRSC13715		2.34e5	2.05e5
fh	DRSC18430		2.97e5	2.86e5
Mal-A2	DRSC07460		52027	71173
Cyp318a1	DRSC19784		3.71e5	3.28e5
Neurl4	DRSC10638		23193	24930
CG17746	DRSC08521		49183	38253
CG8641	DRSC11028		67167	82193
CG32137	DRSC10271		66393	60587
CG32137	DRSC10272		60773	60970
Or85c	DRSC16766		61263	56733
CG5174	DRSC06920		60300	61793
CG4962	DRSC10464		55637	44457
Pgant2	DRSC00587		28350	26983
Sap130	DRSC09680		91283	76140
BRWD3	DRSC15369		38230	40370
BRWD3	DRSC16032		52920	52600
CG4318	DRSC19887		3.42e5	3.47e5
CG15695	DRSC15117		49770	64880
CG17839	DRSC10290		53417	41173
CG17839	DRSC10291		69130	48623
CG3635	DRSC03729		65020	85000
CG8560	DRSC10994		33767	31943
SsRbeta	DRSC11290		21877	24270
CG6073	DRSC15962		2.46e5	2.78e5
enok	DRSC04096		51847	64600
Osi23	DRSC15074		52450	39900
cad	DRSC03502		35593	46923
fend	DRSC17601		2.01e5	2.10e5
fend	DRSC17867		3.04e5	2.44e5
karr	DRSC20681		2.93e5	2.98e5
CG6357	DRSC06979		64063	51367
mthl13	DRSC05238		84470	1.01e5
CG42808 + CG42807	DRSC06370		50493	46867
Kmn1	DRSC19666		2.50e5	2.46e5
scramb1	DRSC09724		67903	71310
scramb1	DRSC10667		67707	68523
scramb1	DRSC10668		71327	70047
Rlip	DRSC16828		60030	55780
ND-42	DRSC16754		34940	29000
CG8852	DRSC00719		26720	41433
CG15144	DRSC02445		94913	81753
CG17361	DRSC10266		58840	51917
stv	DRSC09796		17070	20910
stv	DRSC10111		54887	58723
ort	DRSC16240		50230	70840
zfh1	DRSC14014		1.98e5	1.85e5
CG6790	DRSC16117		46780	36133
Vps51	DRSC06519		62840	66177
Gr58c	DRSC04136		65087	61803
Helz	DRSC11072		22620	21103
TyrR	DRSC16242		28890	21210
CG31262	DRSC13216		3.13e5	3.36e5
ACXA	DRSC00844		81067	76107
CG15536	DRSC15072		41080	42840
Pxd	DRSC16805		64820	60460
CG6005	DRSC15945		37483	45887
CG2003	DRSC15411		46420	59980
CG42512 + CG32573	DRSC19532		4.19e5	3.28e5
Cyp305a1	DRSC11126		23707	23893
CG10194	DRSC02025		76643	55663
Galk	DRSC10500		45177	36560
Cchl	DRSC15949		49007	52743
Nlg4	DRSC15108		38270	41590
Nlg4	DRSC15109		45720	41950
Nlg4	DRSC15700		32000	31310
Nlg4	DRSC15701		13150	15270
Mtmr6	DRSC04046		48413	62453
esg	DRSC03530		73343	61527
CG33288	DRSC11484		55950	56620
kek4	DRSC03220		92367	73557
CG13622	DRSC14624		58580	60450
Obp73a	DRSC09907		51743	44007
Zasp66	DRSC08932		1.65e5	1.84e5
Zasp66	DRSC10631		30050	33093
Zasp66	DRSC10632		88190	84873

In a second layout: entries from further up.
gene | dsRNA | SD above plate mean | raw ATP luminescence, replicate 1 | raw ATP luminescence, replicate 2
PTPMT1 | DRSC14235 | – | 57020 | 78750
Uba1 | DRSC07567 | – | 67780 | 59903
Ctps | DRSC09342 | – | 96087 | 92187
Ctps | DRSC10728 | 2 to 3 SD above plate mean | 49267 | 50743
Ctps | DRSC10729 | – | 43730 | 45067
Ifrd1 | DRSC00415 | – | 43403 | 32697
Ifrd1 | DRSC00566 | – | 32090 | 27937
CG33494 | DRSC13715 | – | 2.34e5 | 2.05e5
fh | DRSC18430 | – | 2.97e5 | 2.86e5
